Results are given in words; binding and its absence hold for the method and conditions named. For some assays here: In cells and extracts the contact can be indirect. Some results given as binding are weak or reduced against the parent protein; the word gives no strength. Each block holds one substance with its values, some of them ahead of it.
What was measured:
[1] = biological target: VP16-ERα chimera (full-length ERα fused to the Herpes simplex virus VP16 transactivation domain) (Herpes simplex virus) (UniProt P03372); experiment: mammalian two-hybrid (luciferase reporter) in HeLa cells, hormone-free
[2] = biological target: VP16-ERα chimera (full-length ERα fused to the Herpes simplex virus VP16 transactivation domain) (Herpes simplex virus) (UniProt P03372); experiment: mammalian two-hybrid (luciferase reporter) in HeLa cells; interaction seen without E2
[3] = biological target: VP16-ERα chimera (full-length ERα fused to the Herpes simplex virus VP16 transactivation domain) (Herpes simplex virus) (UniProt P03372); experiment: mammalian two-hybrid (luciferase reporter) in HeLa cells
GST-ERα (1-595) [4] = biological target: GST-ERα (1-595) (UniProt P03372); experiment: GST pull-down, 35S-labelled in vitro translated DBC-1 fragments
GST-ERα (1-595) [5] = biological target: GST-ERα (1-595) (UniProt P03372); experiment: GST pull-down, in vitro translated DBC-1 fragments

By UniProt entry, the sequences of proteins in these tests, tags left out. Residues count along the entry.
UniProt P03372: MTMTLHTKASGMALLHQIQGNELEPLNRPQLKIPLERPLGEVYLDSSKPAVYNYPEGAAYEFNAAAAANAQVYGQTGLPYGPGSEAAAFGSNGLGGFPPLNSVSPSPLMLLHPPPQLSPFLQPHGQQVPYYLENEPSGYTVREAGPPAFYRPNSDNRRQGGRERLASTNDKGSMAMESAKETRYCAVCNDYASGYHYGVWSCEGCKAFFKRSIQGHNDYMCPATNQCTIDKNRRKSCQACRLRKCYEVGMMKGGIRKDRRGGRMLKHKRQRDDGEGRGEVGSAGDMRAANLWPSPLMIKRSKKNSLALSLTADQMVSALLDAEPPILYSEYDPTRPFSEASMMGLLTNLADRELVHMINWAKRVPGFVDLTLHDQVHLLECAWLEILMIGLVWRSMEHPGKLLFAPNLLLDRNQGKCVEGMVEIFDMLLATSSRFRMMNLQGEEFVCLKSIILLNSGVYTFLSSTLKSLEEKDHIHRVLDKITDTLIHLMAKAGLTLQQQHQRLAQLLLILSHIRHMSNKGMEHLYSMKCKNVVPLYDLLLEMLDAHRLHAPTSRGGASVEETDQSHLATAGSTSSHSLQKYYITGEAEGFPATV
UniProt Q8N163, residues 1-150: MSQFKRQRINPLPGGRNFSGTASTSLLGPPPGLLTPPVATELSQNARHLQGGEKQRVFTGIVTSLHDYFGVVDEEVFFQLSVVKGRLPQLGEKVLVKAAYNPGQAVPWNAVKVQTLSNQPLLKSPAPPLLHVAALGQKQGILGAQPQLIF

Substance: GAL4-DBC-1-N terminal chimera (amino acids 1-478) (from UniProt P04386 1-147; Q8N163 1-478)
binding [1]: binds

Substance: GAL4-DBC-1 chimera (full-length DBC-1 fused to the yeast GAL4 DNA-binding domain) (from UniProt P04386 1-147; Q8N163 1-923)
binding [2]: binds
binding [3]: binds

binding (GST-ERα (1-595) [4]): binds
binding (GST-ERα (1-595) [5]): binds
Substance: DBC-1 (1-150), in vitro translated fragment (from UniProt Q8N163 1-150)

Source: patent publication US20090062179A1
